Laboratory results from publication PMC5717261.
Results are given in words; binding and its absence hold for the method and conditions named. Some entries that bind do so weakly or less than the wild type. Sequences can lack the tags named with a protein.

Protein sequences, listed by entry. Tags and fused reporters are not part of them. Residues count along the entry.
UniProt P11226, residues 21-248: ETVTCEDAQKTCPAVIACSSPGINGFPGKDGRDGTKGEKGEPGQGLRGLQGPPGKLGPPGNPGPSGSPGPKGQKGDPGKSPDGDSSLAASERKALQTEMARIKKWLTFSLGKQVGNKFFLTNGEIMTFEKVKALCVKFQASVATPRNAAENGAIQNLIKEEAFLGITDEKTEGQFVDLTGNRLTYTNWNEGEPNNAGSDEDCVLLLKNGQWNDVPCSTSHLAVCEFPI

What was measured:
[1] = biological target: T1, Recombinant human bone morphogenetic protein-1 (BMP-1) with a C-terminal FLAG tag (human) (UniProt P13497); test: SPR; single injections over immobilised BMP-1 (2,300 RU) or mTLL-1 (1,120 or 310 RU): C1q CLR, C1q GR and MBL CRD at 500 nM; wt MBL, K55A and K55E at 16 nM; 50 mM triethanolamine-HCl, 145 mM NaCl, 2 mM CaCl2, 0.005% P20, pH 7.4; both purified
T1 sequence: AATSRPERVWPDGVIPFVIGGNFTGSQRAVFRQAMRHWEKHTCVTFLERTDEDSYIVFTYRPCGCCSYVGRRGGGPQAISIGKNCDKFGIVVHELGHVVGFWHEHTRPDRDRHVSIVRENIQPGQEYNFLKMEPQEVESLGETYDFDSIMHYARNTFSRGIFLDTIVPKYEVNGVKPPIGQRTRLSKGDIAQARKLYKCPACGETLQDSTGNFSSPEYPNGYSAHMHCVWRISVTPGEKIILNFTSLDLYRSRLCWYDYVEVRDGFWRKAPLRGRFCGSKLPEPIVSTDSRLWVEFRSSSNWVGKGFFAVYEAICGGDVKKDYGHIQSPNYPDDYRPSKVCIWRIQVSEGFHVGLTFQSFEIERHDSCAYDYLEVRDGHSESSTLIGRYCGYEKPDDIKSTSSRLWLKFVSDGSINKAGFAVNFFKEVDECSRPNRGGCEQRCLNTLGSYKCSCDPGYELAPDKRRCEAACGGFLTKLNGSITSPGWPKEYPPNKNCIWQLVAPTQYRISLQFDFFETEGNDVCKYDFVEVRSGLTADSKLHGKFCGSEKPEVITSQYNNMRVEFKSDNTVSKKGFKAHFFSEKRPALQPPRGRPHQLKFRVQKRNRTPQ

[2] = biological target: T2, Recombinant human mammalian tolloid-like-1 (mTLL-1) with a C-terminal 6x-His tag (human) (UniProt O43897); test: as above
T2 sequence: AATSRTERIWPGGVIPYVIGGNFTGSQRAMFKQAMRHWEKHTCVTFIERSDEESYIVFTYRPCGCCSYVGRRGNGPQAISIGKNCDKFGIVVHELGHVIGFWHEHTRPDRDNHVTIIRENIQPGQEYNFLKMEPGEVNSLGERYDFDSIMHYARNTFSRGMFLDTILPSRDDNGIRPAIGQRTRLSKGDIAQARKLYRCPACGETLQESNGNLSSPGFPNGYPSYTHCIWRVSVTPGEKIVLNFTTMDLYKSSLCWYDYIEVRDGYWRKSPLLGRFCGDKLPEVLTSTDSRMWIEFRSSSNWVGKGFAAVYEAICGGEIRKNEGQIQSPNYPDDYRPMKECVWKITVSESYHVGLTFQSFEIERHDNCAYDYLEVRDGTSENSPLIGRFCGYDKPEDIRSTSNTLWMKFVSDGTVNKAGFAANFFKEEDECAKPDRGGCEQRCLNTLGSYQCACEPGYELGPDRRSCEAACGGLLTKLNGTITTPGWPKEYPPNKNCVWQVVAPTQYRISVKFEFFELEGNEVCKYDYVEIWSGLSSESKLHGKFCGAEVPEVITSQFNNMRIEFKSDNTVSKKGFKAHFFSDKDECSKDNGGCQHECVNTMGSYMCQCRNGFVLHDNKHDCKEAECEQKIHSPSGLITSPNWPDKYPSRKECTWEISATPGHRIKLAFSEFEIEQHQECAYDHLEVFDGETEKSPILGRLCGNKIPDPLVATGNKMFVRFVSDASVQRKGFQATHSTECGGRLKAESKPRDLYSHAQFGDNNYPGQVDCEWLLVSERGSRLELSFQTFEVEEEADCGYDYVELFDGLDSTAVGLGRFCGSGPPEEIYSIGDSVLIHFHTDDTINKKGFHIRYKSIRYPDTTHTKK

[3] = biological target: T1, Recombinant human bone morphogenetic protein-1 (BMP-1) with a C-terminal FLAG tag (human); test: SPR; competition: C1q (10 nM) incubated 15 min at room temperature with or without C1s-C1r-C1r-C1s (10 nM) or MASP-2 (60 nM), MBL (10 nM) with or without MASP-2 (60 nM), then injected over immobilised BMP-1 (2,300 RU) or mTLL-1 (3,400 RU); 50 mM triethanolamine-HCl, 145 mM NaCl, 2 mM CaCl2, 0.005% P20, pH 7.4; both purified
[4] = biological target: T2, Recombinant human mammalian tolloid-like-1 (mTLL-1) with a C-terminal 6x-His tag (human); test: as above
[5] = biological target: T1, Recombinant human bone morphogenetic protein-1 (BMP-1) with a C-terminal FLAG tag (human); test: SPR; competition: C1q or MBL (10 nM) incubated 15 min at room temperature with soluble mTLL-1 or BMP-1 (6-fold molar excess; mTLL-1 60 nM), then injected over immobilised mTLL-1 (3,400 RU) or BMP-1; 50 mM triethanolamine-HCl, 145 mM NaCl, 2 mM CaCl2, 0.005% P20, pH 7.4; both purified
[6] = biological target: T2, Recombinant human mammalian tolloid-like-1 (mTLL-1) with a C-terminal 6x-His tag (human); test: as above

Measured: binding

Recombinant human mannose-binding lectin (MBL) (from UniProt P11226 21-248)
binds: all assays above
